# Experimental data: patent publication US9125388B2, “Biological control” (Isis Innovation Limited, priority 1999, dated 2015)
# This continues a long series; more values of the same kind are listed elsewhere.
# Test system: Yp3 tTa, tRe Ras64B^V12 on the 2nd chromosome
# Assay: Recombinant chromosome experiments / maternal transmission of Tc (Table 1): parents raised on supplement, progeny on normal food, adults by sex
# Type: in vivo, Drosophila melanogaster
# Conditions: 25° C.
# Experimental: 40-45 young females and 20-25 young males raised at 25° C. upon food with the indicated tetracycline supplement were allowed to mate, then transferred to normal (tetracycline-free) food after 3-4 days. These flies were transferred to fresh vials of normal food every day for 12 days, then removed on the 13th day. All the vials were incubated at 25° C. while the progeny developed. The numbers of male and female progeny emerging as adults in each vial were recorded.
# A standard range of additive concentrations were used in the following experiments (0.05-20 μg/ml). […] (=“not done”)
# All the preceding experiments were performed at 25° C., the standard temperature for Drosophila culture. However, the insects in the wild would clearly be exposed to varying temperatures, so we investigated the extent to which the efficiency of the system is affected by temperature. As with the recombinant chromosome experiments, 40-45 young virgin females and 20-25 young males raised at 25° C. upon food with the indicated tetracycline supplement were allowed to mate, then transferred to normal (tetracycline-free) food after 3-4 days. These flies were transferred to fresh vials of normal food every day. The numbers of male and female progeny emerging as adults in each vial were recorded. These experiments were performed at either 18° C. or 29° C.
# We used a strain of Drosophila in which females, but not males, require Tc for viability.
# A strain homozygous for second chromosome insertions of both Yp3-tTA and tRe-Ras64B^V12 was tested for the effect of parental dietary Tc. 40-45 young females and 20-25 young males raised at 25° C. upon food with the indicated tetracycline supplement were allowed to mate, then transferred to normal (tetracycline-free) food after 3-4 days. These flies were transferred to fresh vials of normal food every day for 12 days, and then removed on the 13th day. All the vials were incubated at 25° C. while the progeny developed. The total numbers of male and female progeny emerging as adults were recorded.
# [1] = parents raised on Tc 0.1 μg/ml, Day 1 on normal food
# [2] = parents raised on Tc 0.1 μg/ml, Day 2 on normal food
# [3] = parents raised on Tc 0.1 μg/ml, Day 3 on normal food
# [4] = parents raised on Tc 0.1 μg/ml, Day 4 on normal food
# [5] = parents raised on Tc 0.1 μg/ml, Day 5 on normal food
# [6] = parents raised on Tc 0.1 μg/ml, Day 6 on normal food
# [7] = parents raised on Tc 0.1 μg/ml, Day 7 on normal food
# [8] = parents raised on Tc 1 μg/ml, Day 1 on normal food
# [9] = parents raised on Tc 1 μg/ml, Day 2 on normal food
# [10] = parents raised on Tc 1 μg/ml, Day 3 on normal food
# [11] = parents raised on Tc 1 μg/ml, Day 4 on normal food
# [12] = parents raised on Tc 1 μg/ml, Day 5 on normal food
# [13] = parents raised on Tc 1 μg/ml, Day 6 on normal food
# [14] = parents raised on Tc 1 μg/ml, Day 7 on normal food
# [15] = parents raised on Tc 5 μg/ml, Day 1 on normal food
# [16] = parents raised on Tc 5 μg/ml, Day 2 on normal food
# [17] = parents raised on Tc 5 μg/ml, Day 3 on normal food
# [18] = parents raised on Tc 5 μg/ml, Day 4 on normal food
# [19] = parents raised on Tc 5 μg/ml, Day 5 on normal food
# [20] = parents raised on Tc 5 μg/ml, Day 6 on normal food
# [21] = parents raised on Tc 5 μg/ml, Day 7 on normal food
# [22] = parents raised on Tc 5 μg/ml, Day 10 on normal food
# [23] = parents raised on Tc 5 μg/ml, Day 11 on normal food
# [24] = parents raised on Tc 20 μg/ml, Day 8 on normal food
# [25] = parents raised on Tc 20 μg/ml, Day 9 on normal food
# [26] = parents raised on Tc 20 μg/ml, Day 10 on normal food
# [27] = parents raised on Tc 20 μg/ml, Day 11 on normal food
# [28] = parents raised on Tc 20 μg/ml, Day 12 on normal food
# [29] = parents raised on Tc 20 μg/ml, Total of Days 1-12 on normal food
# [30] = parents raised on Tc 100 μg/ml, Day 8 on normal food
smiles,measurement,setting,value
"CN(C)[C@@H]1C(O)=C(C(N)=O)C(=O)[C@@]2(O)C(O)=C3C(=O)c4c(O)cccc4[C@@](C)(O)[C@H]3C[C@@H]12 [Tetracycline, tetracycline]",♀ progeny emerging as adults,[1],0
same,♂ progeny emerging as adults,[1],93
same,♀ progeny emerging as adults,[2],0
same,♂ progeny emerging as adults,[2],119
same,♀ progeny emerging as adults,[3],0
same,♂ progeny emerging as adults,[3],112
same,♀ progeny emerging as adults,[4],0
same,♂ progeny emerging as adults,[4],141
same,♀ progeny emerging as adults,[5],0
same,♂ progeny emerging as adults,[5],100
same,♀ progeny emerging as adults,[6],0
same,♂ progeny emerging as adults,[6],126
same,♀ progeny emerging as adults,[7],0
same,♂ progeny emerging as adults,[7],89
same,♀ progeny emerging as adults,[8],0
same,♂ progeny emerging as adults,[8],117
same,♀ progeny emerging as adults,[9],0
same,♂ progeny emerging as adults,[9],135
same,♀ progeny emerging as adults,[10],0
same,♂ progeny emerging as adults,[10],122
same,♀ progeny emerging as adults,[11],0
same,♂ progeny emerging as adults,[11],121
same,♀ progeny emerging as adults,[12],0
same,♂ progeny emerging as adults,[12],127
same,♀ progeny emerging as adults,[13],0
same,♂ progeny emerging as adults,[13],101
same,♀ progeny emerging as adults,[14],0
same,♂ progeny emerging as adults,[14],136
same,♀ progeny emerging as adults,[15],0
same,♂ progeny emerging as adults,[15],112
same,♀ progeny emerging as adults,[16],0
same,♂ progeny emerging as adults,[16],116
same,♀ progeny emerging as adults,[17],0
same,♂ progeny emerging as adults,[17],128
same,♀ progeny emerging as adults,[18],0
same,♂ progeny emerging as adults,[18],111
same,♀ progeny emerging as adults,[19],0
same,♂ progeny emerging as adults,[19],136
same,♀ progeny emerging as adults,[20],0
same,♂ progeny emerging as adults,[20],113
same,♀ progeny emerging as adults,[21],0
same,♂ progeny emerging as adults,[21],130
same,♀ progeny emerging as adults,"parents raised on Tc 5 μg/ml, Day 9 on normal food",0
same,♀ progeny emerging as adults,[22],0
same,♂ progeny emerging as adults,[22],88
same,♀ progeny emerging as adults,[23],0
same,♂ progeny emerging as adults,[23],144
same,♂ progeny emerging as adults,"parents raised on Tc 5 μg/ml, Day 12 on normal food",91
same,♀ progeny emerging as adults,[24],0
same,♂ progeny emerging as adults,[24],135
same,♀ progeny emerging as adults,[25],0
same,♂ progeny emerging as adults,[25],126
same,♀ progeny emerging as adults,[26],0
same,♂ progeny emerging as adults,[26],143
same,♀ progeny emerging as adults,[27],0
same,♂ progeny emerging as adults,[27],123
same,♀ progeny emerging as adults,[28],0
same,♂ progeny emerging as adults,[28],141
same,♀ progeny emerging as adults,[29],0
same,♂ progeny emerging as adults,[29],1366
same,♀ progeny emerging as adults,[30],0
same,♂ progeny emerging as adults,[30],96
